The record followed here is publication doi:10.1101/2020.09.30.318253.

By UniProt entry, the sequences of proteins in these tests, tags left out.
UniProt Q96524: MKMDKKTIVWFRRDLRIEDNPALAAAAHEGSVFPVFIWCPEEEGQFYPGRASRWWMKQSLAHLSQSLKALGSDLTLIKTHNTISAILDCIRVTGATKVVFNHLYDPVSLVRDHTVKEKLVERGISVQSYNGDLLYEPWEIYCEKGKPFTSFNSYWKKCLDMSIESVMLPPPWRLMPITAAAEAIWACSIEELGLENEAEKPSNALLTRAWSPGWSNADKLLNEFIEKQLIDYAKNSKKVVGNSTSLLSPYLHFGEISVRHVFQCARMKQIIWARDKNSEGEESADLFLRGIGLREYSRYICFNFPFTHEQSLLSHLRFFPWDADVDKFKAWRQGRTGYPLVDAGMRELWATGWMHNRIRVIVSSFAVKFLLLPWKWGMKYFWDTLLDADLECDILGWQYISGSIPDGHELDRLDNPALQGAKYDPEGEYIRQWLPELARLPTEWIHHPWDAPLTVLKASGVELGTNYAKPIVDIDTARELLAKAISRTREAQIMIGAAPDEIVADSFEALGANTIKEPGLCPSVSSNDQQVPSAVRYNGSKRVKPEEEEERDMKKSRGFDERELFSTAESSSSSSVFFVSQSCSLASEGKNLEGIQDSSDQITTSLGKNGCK
UniProt Q43125: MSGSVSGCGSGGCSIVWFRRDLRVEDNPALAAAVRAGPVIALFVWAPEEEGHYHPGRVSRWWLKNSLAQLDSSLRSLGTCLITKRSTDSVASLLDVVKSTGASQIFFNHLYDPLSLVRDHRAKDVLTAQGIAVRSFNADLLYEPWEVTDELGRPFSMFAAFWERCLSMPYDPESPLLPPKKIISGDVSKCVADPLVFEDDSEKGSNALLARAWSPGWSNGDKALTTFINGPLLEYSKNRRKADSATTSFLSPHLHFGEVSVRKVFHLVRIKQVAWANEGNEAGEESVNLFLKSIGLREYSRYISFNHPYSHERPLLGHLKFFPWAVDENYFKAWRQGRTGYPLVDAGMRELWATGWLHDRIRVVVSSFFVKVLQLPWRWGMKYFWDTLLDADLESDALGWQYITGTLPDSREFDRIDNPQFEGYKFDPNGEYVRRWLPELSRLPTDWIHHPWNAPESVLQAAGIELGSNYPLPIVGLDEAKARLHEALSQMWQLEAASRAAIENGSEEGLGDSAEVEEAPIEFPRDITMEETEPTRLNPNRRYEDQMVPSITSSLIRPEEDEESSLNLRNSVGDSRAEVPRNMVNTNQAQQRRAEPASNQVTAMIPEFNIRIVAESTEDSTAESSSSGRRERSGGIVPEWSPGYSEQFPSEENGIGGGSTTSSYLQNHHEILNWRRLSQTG

No constants are given. Whether binding was seen depends on the method and setting. In cells and extracts the contact can be indirect. A yes stands for co-enrichment or nearness to the bait. Other partners may have been found. For some assays here: No binding means not detected with the bait. Where a sequence is shown, tags or fusion partners need not be part of it.

For assay [1], the target named is T1, GSRhino-TAP-tagged COP1 (Arabidopsis) (UniProt P43254).
T1 sequence: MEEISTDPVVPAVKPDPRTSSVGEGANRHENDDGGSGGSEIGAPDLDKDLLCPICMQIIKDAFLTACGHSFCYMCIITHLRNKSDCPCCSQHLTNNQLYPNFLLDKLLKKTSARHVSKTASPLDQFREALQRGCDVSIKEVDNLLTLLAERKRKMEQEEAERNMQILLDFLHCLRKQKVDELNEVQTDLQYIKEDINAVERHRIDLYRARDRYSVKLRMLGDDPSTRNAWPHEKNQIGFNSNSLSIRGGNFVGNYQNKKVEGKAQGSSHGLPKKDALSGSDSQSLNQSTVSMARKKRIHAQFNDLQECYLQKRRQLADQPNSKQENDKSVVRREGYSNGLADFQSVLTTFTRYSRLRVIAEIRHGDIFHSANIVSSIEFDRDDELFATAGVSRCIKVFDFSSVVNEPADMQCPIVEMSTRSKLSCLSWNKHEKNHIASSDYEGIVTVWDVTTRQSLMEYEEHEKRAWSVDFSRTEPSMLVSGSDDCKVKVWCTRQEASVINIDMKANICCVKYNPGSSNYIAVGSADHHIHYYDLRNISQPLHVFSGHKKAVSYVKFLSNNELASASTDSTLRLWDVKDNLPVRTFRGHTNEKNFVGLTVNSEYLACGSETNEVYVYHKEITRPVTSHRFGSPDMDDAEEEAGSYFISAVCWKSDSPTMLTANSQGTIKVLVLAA
Put plainly: affinity purification with mass spectrometry.

For assay [2], the target named is T2, GSRhino-TAP-tagged DET1 (DE-ETIOLATED1) (Arabidopsis) (UniProt P48732).
T2 sequence: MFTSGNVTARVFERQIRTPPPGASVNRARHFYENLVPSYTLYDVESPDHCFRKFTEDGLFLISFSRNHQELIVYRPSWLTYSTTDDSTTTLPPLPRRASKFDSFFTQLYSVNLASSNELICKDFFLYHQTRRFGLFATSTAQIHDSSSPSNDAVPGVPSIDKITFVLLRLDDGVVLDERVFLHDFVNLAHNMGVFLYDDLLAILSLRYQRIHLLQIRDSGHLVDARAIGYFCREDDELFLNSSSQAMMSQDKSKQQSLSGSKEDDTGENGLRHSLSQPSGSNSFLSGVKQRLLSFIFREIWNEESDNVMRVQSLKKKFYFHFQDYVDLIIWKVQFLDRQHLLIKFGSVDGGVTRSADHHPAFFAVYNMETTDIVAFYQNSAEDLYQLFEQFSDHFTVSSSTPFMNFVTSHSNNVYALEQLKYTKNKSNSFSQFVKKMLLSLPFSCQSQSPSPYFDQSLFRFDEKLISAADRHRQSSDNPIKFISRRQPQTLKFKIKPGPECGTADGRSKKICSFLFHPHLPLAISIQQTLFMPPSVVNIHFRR
Description: affinity purification with mass spectrometry.

As to CSN6 (signalosome subunit 6), the binding entry is given as “no binding” in assay [1] and “binds” in assay [2].

As to DAMAGED DNA BINDING PROTEIN1 (DDB1), the binding entry in assay [1] and in assay [2] was “binds” each time. On to CRY2 (from UniProt Q96524 1-612), for which, in assay [1], the binding entry is listed as “binds”. As to CSN5 (signalosome subunit 5), the binding result in assay [1] was “no binding”; in assay [2] it was “binds”. With CRY1 (from UniProt Q43125 1-681), in assay [1], the binding entry is “binds”.

B1: SPA4 (protein, UniProt Q94BM7 1-794)
chain: MKGSSESSSRGLNNTSGVSEFCTDGSKSLSHIDYVRSLLGSHKEANLGGLDDDSIVRALECEDVSLRQWLDNPDRSVDAFECFHVFRQIVEIVNAAHSQGIVVHNVRPSCFVMSSFNNVSFIESASCSDSGSDEDATTKSREIGSSRQEEILSERRSKQQEEVKKQPFPMKQILAMEMSWYTSHEEDNGSLCNCASDIYRLGVLLFELFCPVSSREEKSRTMSSLRHRVLPPQILLNWPKEASFCLWLLHPEPSCRPSMSELLQSEFINEPRENLEEREAAMELRDRIEEQELLLEFLFLIQQRKQEAADKLQDTISLLSSDIDQVVKRQLVLQQKGRDVRSFLASRKRIRQGAETTAAEEENDDNSIDEESKLDDTLESTLLESSRLMRNLKKLESVYFATRYRQIKAATAAEKPLARYYSALSCNGRSSEKSSMSQPSKDPINDSRQGGWIDPFLEGLCKYLSFSKLRVKADLKQGDLLNSSNLVCAIGFDRDGEFFATAGVNKKIKIFECESIIKDGRDIHYPVVELASRSKLSGICWNSYIKSQVASSNFEGVVQVWDVARNQLVTEMKEHEKRVWSIDYSSADPTLLASGSDDGSVKLWSINQGVSIGTIKTKANICCVQFPSETGRSLAFGSADHKVYYYDLRNPKLPLCTMIGHHKTVSYVRFVDSSTLVSSSTDNTLKLWDLSMSISGINETPLHSFMGHTNVKNFVGLSVSDGYIATGSETNEVFVYHKAFPMPVLSYKFKTIDPVSELEVDDASQFISSVCWRGQSSTLVAANSTGNIKILEMV
In the case of B1, the binding entry in assay [1] is on record as “binds”.

B2: SPA2 (protein, UniProt Q9T014 1-1036)
chain: MMDEGSVGDVSRIDEADVAHLQFKNSEQSFKPENIEVREVKEVQVQREAGSPDCSYGVIADFLDGKNGGDHVELIGNEPCSSRQNTNDEGDVVEELTVKTCEGSSMAIVGRPSSRARLEMNRSQFLHRFPLDGDLPGSSSMSKKVIDRGTVSILRNAGKMSLPETSNGQLAIIAVNGEANEHLTNVERNPVPVEALSHEGIKTKMLSQSGFSQFFVRKTLKGKGVTFRGPPNNRSKARNMDQQTVASSGSALVIANTSAKISSSIPLAAYDGLPCLPSNTSKPSSCANPSDTHRGCGGEGLSLREWLKSERQEVNKAECMYIFRQIVDHVDCSHSQGVVLCDLRPSSFKIFKENAVKYVVSGSQRESFDSNMNKETLSQLENPLVRRRLGDTSSLSIPAKKQKSSGPSSRQWPMFQRAGGVNIQTENNDGAIQEFHFRSSQPHCSTVACPFTSVSEQLEEKWYASPEELRGDMRSASSNIYSLGILLYELLSQFQCERAREAAMSDIRHRILPPKFLSENPKEAGFCLWLLHPESSCRPSTRDILQSEVVNGIPDLYAEGLSLSIEQEDTESELLQHFLFLSQEKRQKHAGNLMEEIASVEADIEEIVKRRCAIGPPSLEEASSSSPASSVPEMRLIRNINQLESAYFAARIDAHLPEARYRLRPDRDLLRNSDNTVAEVENSETWSSDDRVGAFFDGLCKYARYSKFETRGVLRTSELNNTSNVICSLGFDRDEDYFATAGVSKKIKIYEFNSLFNESVDIHYPAIEMPNRSKLSGVCWNNYIRNYLASSDYDGIVKLWDVTTGQAISHFIEHEKRAWSVDFSEACPTKLASGSDDCSVKLWNINERNCLGTIRNIANVCCVQFSPQSSHLLAFGSSDFRTYCYDLRNLRTPWCILSGHNKAVSYAKFLDNETLVTASTDNTLKLWDLKKTTHGGLSTNACSLTFGGHTNEKNFVGLSTSDGYIACGSETNEVYAYHRSLPMPITSYKFGSIDPISGKEIEEDNNLFVSSVCWRKRSNMVVSASSNGSIKVLQLV
Consider B2, for which the binding result in assay [1] was “binds”.

B3: CSN7 (signalosome subunit 7) (protein, UniProt Q94JU3 1-260)
chain: MDIEQKQAEIIDQLVKRASTCKSEALGPLIIEATSHPSLFAFSEILALPNVAQLEGTTDSVYLDLLRLFAHGTWGDYKCNATRLPHLSPDQILKLKQLTVLTLAESNKVLPYDTLMVELDVSNVRELEDFLINECMYAGIVRGKLDQLKRCFEVPFAAGRDLRPGQLGNMLHTLSNWLNTSENLLISIQDKIKWADNMSEMDKKHRKEAEEGVEEVKKSLSMKGDVDIRGNKEMFGEPSGVMDYEEDGIRPKRRRHPVTR
Regarding B3, the binding entry is recorded as “no binding” in assay [1] and “binds” in assay [2].

B4: CSN8 (signalosome subunit 8) (protein, UniProt P43255 1-197)
chain: MDLSPVKEALAAKSFDKIADICDTLMLQVASEGIEYHDDWPYAIHLLGYFYVDDCDSARFLWKRIPTAIKERKPEVVAAWGIGQKLWTHDYAGVYEAIRGYDWSQEAKDMVAAFSDLYTKRMFQLLLSAYSTITIHDLALFLGMTEDDATTYVVENGWTVDAASQMASVKKQAVKREQKVDSSKLQRLTEYVFHLEH
For B4, the binding entry in assay [1] was “no binding”; in assay [2] it was “binds”.

B5: SPA3 (protein, UniProt Q9LJR3 1-845)
chain: MEGSSNSNSRGFNTSGVSDRNTEFLPVERLTTRSKPSSHVDEYVRSLFGSTSTHKSGEDDSLGIDPFVRSLEWGDVSLRQWLDKPERSVDVFECLHVFRQIVEIVNAAHSQGIVVHNVRPSCFVMSSFNHVSFIESASCSDSGSDSLEDGPISQKEIGSSRREEAVSKAIAIEEKGVYNKLLERKIEKLEEEKTQPFPMKHILAMETSWYTSPEEDFGSSSTCASDVYRLGVLLFELFCPVPSREEKSRTMSSLRHRVLPPQILLKCPKEASFCLWLLHPEPTCRPSMSDLLQSEFITEPRDNLEEREAAIELRDRIEEQESLLEFLLLIQQRKQESAYRLQDTVSLLSSDIEQVVKRQLILKKRGSSLSDFSKDDHQYTSGQPLMSFQANEEPSAFLASRKRVRQGILALENGVEVDEESQGSTLLESSRLMRNFKKLESVYFLTRRRQMKAAASGKSLTRHSPLSSENGRGSMIVSEKSSVSNPVAPKAFFNNDSRQGGWIDPFLEGLCRYLSFSQLRVKADLKQGDLLNSSNLVCALAFDREGELFATAGVNKKIKIFECNSIVNDNRDIHYPVVELAGRSKLSSLCWNSYIKSQIASSNFDGVVQIWDVARSQLVTEMKEHKKRVWSIDISSADPTLLASGSDDGTVKLWSINQGVSIGTIKTKANVCCVQFPSDSGRSLAFGSADHKVYYYDLRNPKIPLCTMIGHSKTVSYVKFVDSSTLVSSSTDNTLKLWDLSMSASGINESPLHSFTGHTNLKNFVGLSVSDGYIATGSETNEVFVYHKAFPMPVMSYMFNNTDSMSGLEVDDASQFISSICWRGQSSTLVAANSNGNIKILEMMT
For B5, the binding result in assay [1] is listed as “binds”.

B6: SUPPRESSOR OF PHYA-105 1 (SPA1) (protein, UniProt Q9SYX2 1-1029)
chain: MPVMERVAEETVATNNIQLKARVDDVPCNKLDARHNDMVIQSETANSDCPGSSAHRNVDLTKPPPPEEAAGAKLSVEELTLGNYRIVQGSNNTNVDSPRAGKFEHLYRLARGSAFRAGDGDLDSQPRDMDQMLSRIRQQLAGAPSERQNLKPFMSRRSDQNLEAFSERLRAAGENSIMNAPALISEGVQMKTPVSSSNFSQLLLKRAMKGKGVVGKNQETPPEFVSDQDLGSKEKKLDISKSPTPHDVLPLKSSPKGNGMVSHGDGNHSKSSIGISLREFLRSSYAKREKRHGLCLFRQLVELVDSAHSKRLFLLDLRPSLFTLVPSKKLRYIGNFGKNDLESDVDEDLNRRRPVVEESSSGGRDSKKRKMDLHLNSPGNQLQATSTGRPFKRKSPVIDLNMVDARNPDSCELQQQDYIKNLSVSSVSRKQSMSTWLEEQWYTCPEEINGEDIGEKSNIYALGVLLFELLCHCESGEMHAAMMADLRHRILPPTFLSKYPKEAGFCLWLLHPEPSSRPSARDILKSELICEDDSVKSTAAAEEISELLLHFLSSLEVQKKKKASKLLQDIQTLEDDIKEAERRYSSNVSLVRSHGAIEKRVQSSPLDEHCTTSSALFVPTANTDRLMSNIRQLEDAYFFMRSQINLSSSAATARSDKTLKDRDRCSENQNENQDMSTKGKSSDQLEVFFEGLCKFARYSKFETCGTIRSGDLLNSASVVCSLSFDPDEEHIAAAGISKKIKIFDFNAFMNESVGVHYPLVEMVNKSKLSCVCWNSYIKNYLASTDYDGVVQIWDAGTGQGFSQYTEHQKRAWSVDFSPSDPTKFVSGSDDCSVKLWSINEKRSLGTIWSPANVCCVQFSSYSNHLLAFGSADYKVYCYDLRYVKTPWCTLAGHEKAVSYVKFMDSETIVSASTDNSLKLWNLNKTNSSGLSPGACSLTYKGHTNQKNFVGLSVLDGYIACGSETNEVYSYYKSLPMPMTSYKFGSVDPISGNEYFDDNGQFVSSVCWRKKSNMLVAANSTGNMKLLKLV
With B6, the binding result in assay [1] and in assay [2] was “binds” throughout.
